The nature of series [1]: Photoinduced potential of photoinitiator system containing the donor (pH electrode, mV). Type of series: physicochemical.
Series [2] is described as follows: Vinyl ether homopolymerization PDSC with and without EDMAB (Table 2). An excerpt: For the experiments reported in Table 2, the photopolymerization of various vinyl ethers with and without the use of an electron donor to promote the reaction are reported. Data showing runs where EDMAB was used to promote the reaction are shown in parentheses after the numbers corresponding to runs without EDMAB.

Setting [3] is: 0.10 wt % donor added to 1 gram resin, 37° C., >418 nm.
Where [4] appears, read: 0.37 wt % donor added to 1 gram resin.
The mark [5] stands for this setting: 0.53 wt % donor added to 1 gram resin.

Read-outs that look alike come from different tables or passages of the source.

Consider `CN(C)c1ccc(C(=O)O)cc1` [4-DMABA, 4-dimethylaminobenzoic acid], for which the “Photoinduced Potential” value in series [1] is 184 mV. Under setting [3], the “Enthalpy ΔH” value is 513 J/g, the “Induction Time” value worked out at 15 s and the “Time to Exotherm Peak Max.” value was 22 s.

`CCOC(=O)c1ccc(N(C)C)cc1` [EDMAB, ethyl 4-dimethylaminobenzoate]: the “Photoinduced Potential” value in series [1] is 200 mV. Moreover, the “Enthalpy ΔH” value was determined as 434 J/g under setting [3], 436 J/g under setting [4] and 161 J/g under setting [5]. Also, the “Induction Time” value is 10 s under setting [3], 11 s under setting [4] and 11 s under setting [5]. The “Time to Exotherm Peak Max.” value by setting is: under setting [3], 13 s; under setting [4], 16 s; (0.53 wt % donor, first (major) peak of bimodal exotherm) 13 s.

Turning to `COc1ccc(OC)c(OC)c1` [TMB, 1,2,4-trimethoxybenzene], the “Photoinduced Potential” value in series [1] was 233 mV. Further, under setting [3], the “Enthalpy ΔH” value worked out at 215 J/g, the “Induction Time” value came out at 11 s and the “Time to Exotherm Peak Max.” value turned out to be 27 s.

Consider `CN(C)c1ccc(C=O)cc1` [DMABAL], for which the “Photoinduced Potential” value in series [1] is 245 mV. Besides, under setting [3], the “Enthalpy ΔH” value is 495 J/g, the “Induction Time” value was determined as 16 s and the “Time to Exotherm Peak Max.” value turned out to be 27 s.

For `C=COCCCCO` [BDVE, butanediol vinyl ether], in series [2] (with EDMAB), the “Conversion at Max.” value was determined as 45%, the Enthalpy was determined as 10.30 kcal/mole eq, the “Induction Time” value was 103 s and the “Time to Max.” value was 176 s. Besides, the Enthalpy in series [2] (with EDMAB (parentheses)) is 371 J/g. In series [2] (without EDMAB), the “Conversion at Max.” value is 34%, the Enthalpy is recorded as 10.27 kcal/mole eq, the “Induction Time” value was 381 s and the “Time to Max.” value was determined as 537 s. The compound also had an Enthalpy in series [2] (without EDMAB, OPIA/CQ, 37° C.) of 370 J/g.

On to `C=COCC1CO1` (stereo not shown) [GVE, glycidyl vinyl ether], for which, in series [2] (with EDMAB), the “Conversion at Max.” value is listed as 51%, the Enthalpy turned out to be 5.13 kcal/mole eq, the “Induction Time” value is 56 s and the “Time to Max.” value was found to be 242 s. The Enthalpy in series [2] (with EDMAB (parentheses)) came to 429 J/g. In addition, in series [2] (without EDMAB), the “Conversion at Max.” value stood at 48%, the Enthalpy was determined as 9.53 kcal/mole eq, the “Induction Time” value stood at 78 s and the “Time to Max.” value is 284 s. Also, the Enthalpy in series [2] (without EDMAB, OPIA/CQ, 37° C.) worked out at 797 J/g.

Turning to `C=COCC1CCC(COC=C)CC1` (stereo not shown) [CHDMDVE, 1,4-cyclohexanedimethanol divinyl ether], in series [2] (with EDMAB), the “Conversion at Max.” value came out at 24%, the Enthalpy is recorded as 3.40 kcal/mole eq, the “Induction Time” value came out at 30 s and the “Time to Max.” value was 76 s. Also, the Enthalpy in series [2] (with EDMAB (parentheses)) was 145 J/g. In series [2] (without EDMAB), the “Conversion at Max.” value was 57%, the Enthalpy was found to be 7.74 kcal/mole eq, the “Induction Time” value came to 123 s and the “Time to Max.” value was found to be 204 s. The compound also had an Enthalpy in series [2] (without EDMAB, OPIA/CQ, 37° C.) of 330 J/g.

Regarding `O=C(O)CNc1ccccc1` [NPG, N-phenylglycine], the “Photoinduced Potential” value in series [1] is recorded as 161 mV. Besides, under setting [3], the “Enthalpy ΔH” value came out at 348 J/g, the “Induction Time” value is 12 s and the “Time to Exotherm Peak Max.” value was 19 s.

hexanediol divinyl ether [HDDVE]: in series [2] (with EDMAB), the “Conversion at Max.” value is 23%, the Enthalpy is given as 7.77 kcal/mole eq, the “Induction Time” value was found to be 51 s and the “Time to Max.” value was 58 s. The Enthalpy in series [2] (with EDMAB (parentheses)) was 451 J/g. Moreover, in series [2] (without EDMAB), the “Conversion at Max.” value is 61%, the Enthalpy was 9.25 kcal/mole eq, the “Induction Time” value is 80 s and the “Time to Max.” value was 139 s. Moreover, the Enthalpy in series [2] (without EDMAB, OPIA/CQ, 37° C.) is 537 J/g.

Take `C=COCCOC=C` [EGDVE, ethylene glycol divinyl ether]: the “Conversion at Max.” value stood at 18% in series [2] (with EDMAB) and 50% in series [2] (without EDMAB). Moreover, the Enthalpy came out at 5.06 kcal/mole eq in series [2] (with EDMAB); 371 J/g in series [2] (with EDMAB (parentheses)); 6.45 kcal/mole eq in series [2] (without EDMAB); 473 J/g in series [2] (without EDMAB, OPIA/CQ, 37° C.). Also, the results for the “Induction Time” value in series [2] (with EDMAB) and in series [2] (without EDMAB) were 12 s and 52 s, respectively. The “Time to Max.” value in series [2] (with EDMAB) came out at 14 s; in series [2] (without EDMAB) it was 89 s.

In the case of `C=COCCOCCOCCOC=C` [TEGDVE, tri(ethylene glycol)divinyl ether], the “Conversion at Max.” value in series [2] (with EDMAB) turned out to be 19%; in series [2] (without EDMAB) it was 13%. Further, the Enthalpy is 12.70 kcal/mole eq in series [2] (with EDMAB); 526 J/g in series [2] (with EDMAB (parentheses)); 10.07 kcal/mole eq in series [2] (without EDMAB); 417 J/g in series [2] (without EDMAB, OPIA/CQ, 37° C.). In addition, the entries for the “Induction Time” value in series [2] (with EDMAB) and in series [2] (without EDMAB) were 17 s and 59 s, respectively. Moreover, the results for the “Time to Max.” value in series [2] (with EDMAB) and in series [2] (without EDMAB) were 20 s and 70 s, respectively.

Turning to `CN(C)c1ccc(C(=O)C(O)c2ccccc2)cc1` (stereo not shown) [DMAB, 4-dimethylaminobenzoin], in series [1], the “Photoinduced Potential” value stood at 261 mV. Moreover, under setting [3], the “Enthalpy ΔH” value was found to be 450 J/g, the “Induction Time” value worked out at 22 s and the “Time to Exotherm Peak Max.” value turned out to be 73 s.

In the case of `CN(C)c1ccc(CCO)cc1` [4-DMAPE], the “Photoinduced Potential” value in series [1] was 17 mV. Under setting [3], the “Enthalpy ΔH” value is listed as 480 J/g, the “Induction Time” value was determined as 38 s and the “Time to Exotherm Peak Max.” value worked out at 280 s.

For `CN(C)c1ccccc1` [DMA, N,N-dimethylaniline], in series [1], the “Photoinduced Potential” value was determined as 54 mV.

`C=COCCOCCOC=C` [DEGDVE, di(ethylene glycol)divinyl ether]: in series [2] (with EDMAB), the “Conversion at Max.” value is reported as 30%, the Enthalpy is given as 6.39 kcal/mole eq, the “Induction Time” value is 37 s and the “Time to Max.” value came out at 113 s. The Enthalpy in series [2] (with EDMAB (parentheses)) was found to be 33 J/g. In addition, in series [2] (without EDMAB), the “Conversion at Max.” value worked out at 44%, the Enthalpy turned out to be 10.44 kcal/mole eq, the “Induction Time” value worked out at 58 s and the “Time to Max.” value is 121 s. For the same compound, the Enthalpy in series [2] (without EDMAB, OPIA/CQ, 37° C.) was found to be 539 J/g.

For the compound `CN(C)c1cccc(C(=O)O)c1` [3-DMABA, 3-dimethylamino benzoic acid], in series [1], the “Photoinduced Potential” value is reported as 115 mV. Besides, under setting [3], the “Enthalpy ΔH” value stood at 382 J/g, the “Induction Time” value was 19 s and the “Time to Exotherm Peak Max.” value worked out at 30 s.

(Values after patent US6653486B2, “Spiroorthocarbonates containing epoxy groups” (Curators of the University of Missouri, priority 1999, dated 2003).)
